# According to the supplement of paper PMC12889115:
# The list shows a part of the results. These are raw signals, not scaled to a control.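 First-pass screen: polymyxin B was added at a level that permeabilizes the Salmonella outer membrane while sparing the inner membrane. DMSO wells, with and without polymyxin B, defined maximum growth. Because plates differed from one another, each plate's data were ranked separately and the compounds with the lowest OD600 were carried forward as hits.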
# System: Salmonella enterica serovar Typhimurium SL1344
# Assay: bacterial growth OD600 after 18 h with compound and polymyxin B; higher = more bacterial growth (less inhibition)
# Details: 50 µM, Mueller-Hinton broth
SMILES,bacterial growth OD600 (polymyxin B 0.75 µg/mL),bacterial growth OD600 (polymyxin B 1 µg/mL)
CC(C)(CNC1CCN(c2ccc(C(=O)NCc3ccc4c(c3)OCO4)cc2)CC1)N1CCOCC1,0.815,
CCCCC1CN(CCC(=O)NCCc2ccncc2)Cc2ccccc2O1 (stereo not drawn),0.761,
COc1ccc(CN2CCN(C(C)C)CC2)cc1OCC(O)CN1CCCCCCC1 (stereo not drawn),0.775,
COCCN1CCN(Cc2cn(-c3ccccc3C)nc2-c2ccc(OC)c(F)c2)CC1,,1.1
CCN1CCC(CC(=O)N2CCCC(CCc3cccc(F)c3)C2)CC1 (stereo not drawn),0.674,
Cc1ccccc1CCN1CCCC(CN(C)C(=O)CCN2CCCC2=O)C1 (stereo not drawn),,0.819
Cc1c(CC(=O)N2CCNC(=O)C2)c2c(n1Cc1ccccc1F)CCCC2=O,,1.16
COc1ccc(F)c(CN2CCCC3(CCN(C(=O)C4CCCC4)C3)C2)c1 (stereo not drawn),,0.912
COCCNC(=O)c1ccc(OC2CCN(CC3CCOC(C)(C)C3)CC2)c(Cl)c1 (stereo not drawn),,0.935
CCc1csc(CNC(=O)c2ccc(N(C)CC)nc2)n1,,0.88
CCCCN(Cc1ccccc1)C(=O)CCC1(Cc2cc(OC)ccc2F)CCC(=O)N1 (stereo not drawn),0.633,
CC1CN(Cc2cccc(OCCO)c2)Cc2cc(Cl)ccc2O1 (stereo not drawn),0.486,
CC(C)CN1CC(C(=O)N2CCOc3ccc(CN4CCN(c5ccccc5)CC4)cc3C2)CC1=O (stereo not drawn),0.889,
CC(C(=O)N1CCc2onc(-c3ccc(-c4ccccc4)cc3)c2C1)n1cncn1 (stereo not drawn),0.584,
COc1cc(/C=C/CN2CCC(Oc3ccccc3C(=O)N3CCCC3)CC2)ccc1O,0.776,
COCCN1CCN(C(=O)CC2c3ccccc3CCc3ccccc32)CC1,,0.779
CCOC(=O)N1CCC(NC(=O)C2CC(Cc3ccc(OC)cc3)=NO2)CC1 (stereo not drawn),0.877,
O=C(CC(F)(F)F)N1CCC(C2CCN(c3ncccn3)CC2)C1 (stereo not drawn),0.953,

# Random excerpt: 2 entries already listed
SMILES,bacterial growth OD600 (polymyxin B 0.75 µg/mL),bacterial growth OD600 (polymyxin B 1 µg/mL)
COc1ccc(CN2CCN(C(C)C)CC2)cc1OCC(O)CN1CCCCCCC1 (stereo not drawn),0.775,
CC1CN(Cc2cccc(OCCO)c2)Cc2cc(Cl)ccc2O1 (stereo not drawn),0.486,
